Laboratory results: article doi:10.1101/2024.08.24.609485

Assays:
GFP-ARHGAP12a = biological target: T1, GFP-ARHGAP12a (UniProt Q8IWW6); test: co-IP
T1 sequence: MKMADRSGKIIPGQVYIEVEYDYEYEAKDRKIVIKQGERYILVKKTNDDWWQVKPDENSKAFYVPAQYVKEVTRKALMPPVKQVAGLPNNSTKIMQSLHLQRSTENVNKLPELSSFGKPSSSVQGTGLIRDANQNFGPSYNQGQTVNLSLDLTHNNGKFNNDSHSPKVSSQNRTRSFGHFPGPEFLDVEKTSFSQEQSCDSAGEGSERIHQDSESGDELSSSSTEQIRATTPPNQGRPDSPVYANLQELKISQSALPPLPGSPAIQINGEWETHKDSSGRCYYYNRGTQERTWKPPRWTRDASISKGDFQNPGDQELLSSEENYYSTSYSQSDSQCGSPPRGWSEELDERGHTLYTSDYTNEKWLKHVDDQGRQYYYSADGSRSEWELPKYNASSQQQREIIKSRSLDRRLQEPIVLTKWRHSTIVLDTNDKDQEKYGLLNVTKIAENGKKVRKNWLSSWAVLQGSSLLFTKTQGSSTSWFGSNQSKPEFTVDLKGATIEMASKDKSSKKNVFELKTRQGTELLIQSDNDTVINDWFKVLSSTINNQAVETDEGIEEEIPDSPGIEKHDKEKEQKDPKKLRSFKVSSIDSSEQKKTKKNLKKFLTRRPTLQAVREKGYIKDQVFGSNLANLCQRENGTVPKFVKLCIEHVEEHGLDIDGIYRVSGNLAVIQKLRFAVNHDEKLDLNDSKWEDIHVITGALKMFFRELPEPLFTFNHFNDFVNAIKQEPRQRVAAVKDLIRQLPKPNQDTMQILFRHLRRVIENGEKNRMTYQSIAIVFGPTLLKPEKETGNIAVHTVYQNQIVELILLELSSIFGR

GST-SH3 = biological target: T2, GST-SH3 (UniProt Q8IWW6); test: pull-down
T2 sequence: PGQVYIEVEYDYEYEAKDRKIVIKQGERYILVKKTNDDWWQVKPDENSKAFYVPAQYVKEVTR

[1] = biological target: T3, APEX2-EGFP fusion protein of ZO-3 (UniProt O95049); test: co-IP
T3 sequence: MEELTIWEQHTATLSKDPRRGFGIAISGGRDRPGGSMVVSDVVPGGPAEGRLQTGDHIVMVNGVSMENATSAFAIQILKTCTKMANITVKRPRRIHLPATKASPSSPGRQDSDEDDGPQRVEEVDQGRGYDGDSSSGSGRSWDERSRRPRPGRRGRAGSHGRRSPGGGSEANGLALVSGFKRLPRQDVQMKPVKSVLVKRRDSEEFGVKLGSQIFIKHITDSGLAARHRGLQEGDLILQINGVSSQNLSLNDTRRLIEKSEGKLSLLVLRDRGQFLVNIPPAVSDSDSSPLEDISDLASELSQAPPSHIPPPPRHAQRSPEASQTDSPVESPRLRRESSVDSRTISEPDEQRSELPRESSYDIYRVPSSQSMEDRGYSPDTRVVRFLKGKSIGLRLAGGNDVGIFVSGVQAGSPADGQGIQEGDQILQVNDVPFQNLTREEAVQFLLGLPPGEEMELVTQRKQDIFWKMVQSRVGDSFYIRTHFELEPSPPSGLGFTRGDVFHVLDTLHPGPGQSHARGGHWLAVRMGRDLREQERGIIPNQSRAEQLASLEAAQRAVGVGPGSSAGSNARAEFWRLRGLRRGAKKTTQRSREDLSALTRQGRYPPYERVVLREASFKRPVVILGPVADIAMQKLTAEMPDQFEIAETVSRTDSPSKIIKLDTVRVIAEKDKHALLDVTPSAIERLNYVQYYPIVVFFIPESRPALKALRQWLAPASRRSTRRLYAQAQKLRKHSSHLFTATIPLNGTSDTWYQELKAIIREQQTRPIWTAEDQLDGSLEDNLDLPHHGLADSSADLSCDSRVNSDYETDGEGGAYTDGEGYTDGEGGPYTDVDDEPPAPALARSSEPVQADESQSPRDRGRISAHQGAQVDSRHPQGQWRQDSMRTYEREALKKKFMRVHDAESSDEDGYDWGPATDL

binding (GFP-ARHGAP12a) | binding (GST-SH3) | binding [1] | Substance
no binding | – | – | TIAM1 (endogenous, MDCK-II)
binds | binds | – | N-WASP (endogenous, MDCK-II)
no binding | – | – | IRSp53 (endogenous, MDCK-II)
– | – | no binding | ARHGAP12 (endogenous, MDCK-II)
no binding | – | – | Par3 (endogenous, MDCK-II)
no binding | – | – | TRIP10/CIP4 (endogenous, MDCK-II)
no binding | – | – | TOCA-1 (endogenous, MDCK-II)

Results are given in words; binding and its absence hold for the method and conditions named. In cells and extracts the contact can be indirect. For some assays here: Binding can be weak; no strength is given. Where a sequence is shown, tags or fusion partners need not be part of it.
